Results are given in words; binding and its absence hold for the method and conditions named. Binding seen in cells or lysates may run through a third protein. Some entries that bind do so weakly or less than the wild type.
Experiments:
[1] = molecular target: GST-EglN2 (UniProt Q96KS0); test: pull-down; GST-EglN proteins on glutathione beads with in vitro translated ADSL in 500 μl NETN buffer, overnight, eight NETN washes, immunoblot; only the target purified
[2] = molecular target: EglN2, endogenous (human (endogenous in MDA-MB-231)) (UniProt Q96KS0); test: co-IP; reciprocal immunoprecipitation of endogenous EglN2 (anti-EglN2) or ADSL (anti-ADSL) with protein G sepharose from MDA-MB-231 cells treated with DMOG; immunoblot
[3] = molecular target: GST-EglN2 (UniProt Q96KS0); test: pull-down; GST-Ctrl or GST-EglN2 on glutathione beads with lysates of MDA-MB-231 cells treated overnight (hypoxia 1% O2 + 1 mM DMOG); overnight incubation, NETN washes, immunoblot; only the target purified
[4] = molecular target: FLAG-EglN2-WT (UniProt Q96KS0); test: co-IP; immunoprecipitation of EglN2-WT or -H358A from lysates of MDA-MB-231 cells transfected with plasmids and treated overnight (hypoxia 1% O2, DMOG 1 mM); immunoblot

Amino acid sequences for entries named in this document (tags omitted).
UniProt Q96KS0: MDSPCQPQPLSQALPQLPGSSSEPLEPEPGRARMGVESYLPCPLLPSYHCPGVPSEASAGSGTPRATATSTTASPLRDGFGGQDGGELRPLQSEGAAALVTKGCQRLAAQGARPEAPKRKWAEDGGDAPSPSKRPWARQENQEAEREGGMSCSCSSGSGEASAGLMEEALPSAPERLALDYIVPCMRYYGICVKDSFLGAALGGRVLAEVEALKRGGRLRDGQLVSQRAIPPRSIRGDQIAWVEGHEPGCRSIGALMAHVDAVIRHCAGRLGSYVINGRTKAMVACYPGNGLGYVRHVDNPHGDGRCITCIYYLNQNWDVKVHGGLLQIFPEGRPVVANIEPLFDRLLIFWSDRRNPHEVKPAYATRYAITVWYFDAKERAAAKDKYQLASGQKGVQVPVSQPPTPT

B1: in vitro translated ADSL (enzyme, UniProt P30566 1-484)
chain: MAAGGDHGSPDSYRSPLASRYASPEMCFVFSDRYKFRTWRQLWLWLAEAEQTLGLPITDEQIQEMKSNLENIDFKMAAEEEKRLRHDVMAHVHTFGHCCPKAAGIIHLGATSCYVGDNTDLIILRNALDLLLPKLARVISRLADFAKERASLPTLGFTHFQPAQLTTVGKRCCLWIQDLCMDLQNLKRVRDDLRFRGVKGTTGTQASFLQLFEGDDHKVEQLDKMVTEKAGFKRAFIITGQTYTRKVDIEVLSVLASLGASVHKICTDIRLLANLKEMEEPFEKQQIGSSAMPYKRNPMRSERCCSLARHLMTLVMDPLQTASVQWFERTLDDSANRRICLAEAFLTADTILNTLQNISEGLVVYPKVIERRIRQELPFMATENIIMAMVKAGGSRQDCHEKIRVLSQQAASVVKQEGGDNDLIERIQVDAYFSPIHSQLDHLLDPSSFTGRASQQVQRFLEEEVYPLLKPYESVMKVKAELCL
- binding [1]: binds

B2: adenylosuccinate lyase (ADSL), endogenous (enzyme, UniProt P30566 1-484)
chain: MAAGGDHGSPDSYRSPLASRYASPEMCFVFSDRYKFRTWRQLWLWLAEAEQTLGLPITDEQIQEMKSNLENIDFKMAAEEEKRLRHDVMAHVHTFGHCCPKAAGIIHLGATSCYVGDNTDLIILRNALDLLLPKLARVISRLADFAKERASLPTLGFTHFQPAQLTTVGKRCCLWIQDLCMDLQNLKRVRDDLRFRGVKGTTGTQASFLQLFEGDDHKVEQLDKMVTEKAGFKRAFIITGQTYTRKVDIEVLSVLASLGASVHKICTDIRLLANLKEMEEPFEKQQIGSSAMPYKRNPMRSERCCSLARHLMTLVMDPLQTASVQWFERTLDDSANRRICLAEAFLTADTILNTLQNISEGLVVYPKVIERRIRQELPFMATENIIMAMVKAGGSRQDCHEKIRVLSQQAASVVKQEGGDNDLIERIQVDAYFSPIHSQLDHLLDPSSFTGRASQQVQRFLEEEVYPLLKPYESVMKVKAELCL
- binding [2]: binds
- binding [3]: binds

B3: ADSL (in the co-immunoprecipitation of transfected MDA-MB-231 cells, Fig. 1e) (enzyme, UniProt P30566 1-484)
chain: MAAGGDHGSPDSYRSPLASRYASPEMCFVFSDRYKFRTWRQLWLWLAEAEQTLGLPITDEQIQEMKSNLENIDFKMAAEEEKRLRHDVMAHVHTFGHCCPKAAGIIHLGATSCYVGDNTDLIILRNALDLLLPKLARVISRLADFAKERASLPTLGFTHFQPAQLTTVGKRCCLWIQDLCMDLQNLKRVRDDLRFRGVKGTTGTQASFLQLFEGDDHKVEQLDKMVTEKAGFKRAFIITGQTYTRKVDIEVLSVLASLGASVHKICTDIRLLANLKEMEEPFEKQQIGSSAMPYKRNPMRSERCCSLARHLMTLVMDPLQTASVQWFERTLDDSANRRICLAEAFLTADTILNTLQNISEGLVVYPKVIERRIRQELPFMATENIIMAMVKAGGSRQDCHEKIRVLSQQAASVVKQEGGDNDLIERIQVDAYFSPIHSQLDHLLDPSSFTGRASQQVQRFLEEEVYPLLKPYESVMKVKAELCL
- binding [4]: binds
